This is one part of the list. Values are raw readings; no control value is given beside them.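 Primary screen: polymyxin B was added at a level permeabilizing Salmonella outer membranes while sparing inner membranes. DMSO wells, both with and without polymyxin B, established maximum growth. Plate-to-plate variation meant each plate was ranked on its own, and the lowest-OD600 compounds were selected as hits.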
Test system: Salmonella enterica serovar Typhimurium SL1344
Assay: bacterial growth OD600 after 18 h with compound and polymyxin B; higher = more bacterial growth (less inhibition)
Conditions: 50 µM, Mueller-Hinton broth

| SMILES | bacterial growth OD600 (polymyxin B 1 µg/mL) | bacterial growth OD600 (polymyxin B 0.75 µg/mL) |
| --- | --- | --- |
| CCN1CCCC1CNC(=O)CCC1CCN(Cc2cccc(C(C)=O)c2)CC1 (configuration not stated) | 0.915 | – |
| Cc1noc(C)c1C(=O)N1CCC2(CCCN(Cc3ccccc3F)C2=O)C1 (configuration not stated) | 1.15 | – |
| CCOCC(O)CNc1nncc(-c2ccc(C)o2)n1 (configuration not stated) | – | 0.88 |
| CN(C(=O)c1ccco1)C(Cc1ccccc1Cl)C1CCN(Cc2cccc3c2OCO3)CC1 (configuration not stated) | – | 0.737 |
| CC(C)C1=NOC(C(=O)N2CCC(CCC(=O)Nc3ccccc3)CC2)C1 (configuration not stated) | 0.991 | – |
| Cc1cc(C)n(CC(C)NC(=O)c2cn(Cc3ccccc3Cl)nn2)n1 (configuration not stated) | 0.866 | – |
| CCn1cc(CNCc2cccnc2Oc2ccc(F)c(F)c2)cn1 | – | 0.8 |
| O=C(CCCc1ccccc1)Nc1cccc(N2CCC(NC(c3ccccn3)C(F)(F)F)CC2)c1 (configuration not stated) | – | 0.552 |
| COCc1ccc(C(=O)NC(C)c2cnn(-c3cccc(F)c3)c2C)s1 (configuration not stated) | 0.872 | – |
| COc1cccc(-c2ccc(NC(=O)C3CCCN(Cc4ccccn4)C3)cc2)c1 (configuration not stated) | 0.845 | – |
| Cc1nc(CN(C)c2nc3nonc3nc2NCc2cccs2)cs1 | 0.817 | – |
| CC(C)c1ccc(NC2CCCN(C(=O)CCC(F)(F)F)C2)cc1 (configuration not stated) | 0.77 | – |
| COc1cc(CC2(CCC(=O)NC(c3ccncc3)c3ccc(C)cc3)CCC(=O)N2)ccc1F (configuration not stated) | – | 0.929 |
| OCC1(CCCc2ccccc2)CCCN(Cc2ccc3nsnc3c2)C1 (configuration not stated) | – | 0.612 |
| CCNC(=O)c1cn(CCc2ccccc2)cc(C(=O)N2CCCC(c3ccccc3)C2)c1=O (configuration not stated) | – | 0.752 |
| CCOC(=O)C1(CCOc2ccccc2)CCN(Cc2ccc(O)c(OC)c2)CC1 | 0.97 | – |

| SMILES | bacterial growth OD600 (polymyxin B 1 µg/mL) | bacterial growth OD600 (polymyxin B 0.75 µg/mL) |
| --- | --- | --- |
| CCCN(Cc1nc(Cc2ccccc2Cl)no1)CC1CC1 | 0.776 | – |
| O=C(Nc1ccc(Oc2cccnc2)cc1)C1CCN(CC2CC=CCC2)CC1 (configuration not stated) | 0.755 | – |
| O=C(CC(c1ccccc1)c1ccc(Cl)cc1)N1CCc2[nH]ncc2C1 (configuration not stated) | 0.667 | – |
| O=C1N(Cc2cccc(Cl)c2)C[C@@H]2C[C@@H](c3ccc(F)cc3F)N3CCC[C@@]123 | – | 0.146 |
| O=C1CCC(C(=O)N2CCSCC2)CN1CCCN1CCOCC1 (configuration not stated) | 0.981 | – |
| CN(Cc1ccc(Oc2ccccc2)cc1)C(=O)Cn1cc(NC(=O)CCC(=O)c2ccccc2)cn1 | – | 0.148 |
| COCCn1cc(C(=O)NCC2(c3ccccc3)CCCC2)c(=O)c(C(=O)N2CCCCC2C)c1 (configuration not stated) | – | 0.766 |
| Cc1ccc2c(c1)CN(C(=O)Cn1cc3ccccc3n1)CC(c1ccsc1)O2 (configuration not stated) | – | 0.001 |
| O=C1NCCN1CCNc1ccc(-c2nc(C3CC3)no2)cn1 | 1.02 | – |
| CC(C)S(=O)(=O)N1CCC2(CCCN(Cc3cccc(F)c3F)C2=O)C1 (configuration not stated) | 0.873 | – |
| COc1ccc(-c2cnnc(NCc3c[nH]nc3-c3ccc(F)cc3)n2)cc1OC | – | 0.008 |
| COc1cccc(CC(C2CCN(C(=O)[C@H]3C[C@@H]4C=C[C@H]3C4)CC2)N(C)C(=O)CCSC)c1 (some centres not stated) | – | 1.01 |
| CCCc1ccc2oc(C(=O)N3CCCC(COC)C3)c(C)c2c1 (configuration not stated) | -0.001 | – |
| Cc1occc1C(=O)NC1CC(=O)N(CCc2ccccc2)C1 (configuration not stated) | 0.988 | – |
| Cc1cccc(-c2cnc(C)nc2C2CCCN(C(=O)c3ccccc3F)C2)c1 (configuration not stated) | – | 0.825 |
| CCC(=O)NCC1Cc2cccc(-c3ncccc3C)c2O1 (configuration not stated) | – | 0.808 |

Random excerpt: 2 records from the list

| SMILES | bacterial growth OD600 (polymyxin B 1 µg/mL) | bacterial growth OD600 (polymyxin B 0.75 µg/mL) |
| --- | --- | --- |
| COCCn1cc(C(=O)NCC2(c3ccccc3)CCCC2)c(=O)c(C(=O)N2CCCCC2C)c1 (configuration not stated) | – | 0.766 |
| O=C(CC(c1ccccc1)c1ccc(Cl)cc1)N1CCc2[nH]ncc2C1 (configuration not stated) | 0.667 | – |

Reference: the supplement of paper PMC12889115
